These are yes or no findings as the source states them, for the method shown. Binding seen in cells or lysates may run through a third protein. These calls come from enrichment with a bait or labelling near it, and not all partners need be listed. Tags and fused reporters may be left off the sequences shown.
Target: T1, IRE1-TEV-HA (murine IRE1α with a C-terminal TEV protease cleavage site and an HA epitope tag) (murine) (UniProt Q9Z2E3)
T1 sequence: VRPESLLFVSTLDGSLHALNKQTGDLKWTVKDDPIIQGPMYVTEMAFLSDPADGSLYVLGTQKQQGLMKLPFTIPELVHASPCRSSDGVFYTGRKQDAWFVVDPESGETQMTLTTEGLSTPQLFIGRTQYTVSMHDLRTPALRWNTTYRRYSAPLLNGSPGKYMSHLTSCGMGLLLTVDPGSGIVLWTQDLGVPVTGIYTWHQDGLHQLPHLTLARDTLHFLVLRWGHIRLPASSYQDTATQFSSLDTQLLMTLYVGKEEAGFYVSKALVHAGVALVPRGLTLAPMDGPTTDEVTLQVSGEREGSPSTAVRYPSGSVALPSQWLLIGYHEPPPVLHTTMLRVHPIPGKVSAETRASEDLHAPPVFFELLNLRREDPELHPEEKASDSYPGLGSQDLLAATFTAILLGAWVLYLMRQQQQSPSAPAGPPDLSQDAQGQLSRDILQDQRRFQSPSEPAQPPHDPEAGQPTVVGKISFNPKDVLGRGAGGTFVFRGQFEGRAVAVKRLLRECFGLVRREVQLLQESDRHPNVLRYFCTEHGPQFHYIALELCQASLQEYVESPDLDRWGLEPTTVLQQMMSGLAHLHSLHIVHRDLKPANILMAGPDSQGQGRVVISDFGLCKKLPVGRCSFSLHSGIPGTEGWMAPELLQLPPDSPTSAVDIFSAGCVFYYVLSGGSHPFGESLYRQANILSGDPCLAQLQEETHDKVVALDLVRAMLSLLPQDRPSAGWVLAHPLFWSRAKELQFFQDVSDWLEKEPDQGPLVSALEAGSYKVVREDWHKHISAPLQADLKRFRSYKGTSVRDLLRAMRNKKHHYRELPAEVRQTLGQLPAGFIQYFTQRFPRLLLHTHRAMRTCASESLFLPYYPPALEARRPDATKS
Assay: affinity purification with mass spectrometry; RIPA lysates of MCMV-infected (mock-infected as control) NIH-3T3 cells stably expressing IRE1-TEV-HA loaded on an anti-HA 3F10 affinity matrix; eluted by TEV protease; SDS-PAGE, silver stain; bands absent from the control lane analysed by mass spectrometry; MOI 5 in the legend, MOI 1 and 48 h in the methods

With “M50 of MCMV, expressed from the virus (murine cytomegalovirus (MCMV))” the binding was “binds”.

— article PMC3738497
